PubChem BioAssay AID1224826 – NIAID – 2016
Test: 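Regulators of Tlr4 signalling leading to Tnf-alpha expression in macrophages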 (primary screen). Cells: RAW264.7 G9 macrophages from mouse bearing reporters for p65 (GFP) and the Tnf promoter (mCherry). Reagents: siRNA pool against mouse genes, 100 nM. Time to read-out: 16 h of LPS stimulation, after 2 days of siRNA transfection. Challenge: bacterial lipopolysaccharide (Salmonella minnesota R595), 10 ng/ml. Detection: 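Imaged Tnf reporter mCherry in nuclei, minus background, normalised per plate to the median and expressed as robust z-scores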. Reading the numbers: Tnf reporter robust z-score: higher = stronger Tnf promoter reporter signal after LPS. Call rule: 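Called active when robust z-score is at most -1.3, matching the median of the Tlr4 knock-down control, or over 3; control wells and wells with under 50 cells never active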. Calls: active = Tnf reporter clearly lowered or raised; inactive = no clear change in Tnf reporter.
The deposit covers about 17,000 reagents; this is an unselected part. About 1,110 of them (6.6%) were called active. 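Active means lowered or raised reporter signal; replicate intensities are raw and not normalised per plate.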 Not all columns of the deposit are shown.

| gene | PubChem SID | Tnf reporter robust z-score | fewer than 50 cells in well | outcome |
| --- | --- | --- | --- | --- |
| Ppm1l (protein phosphatase 1 (formerly 2C)-like) | SID315479593 | -2.06 | enough cells in well | active |
| Serpinb6b (serine (or cysteine) peptidase inhibitor, clade B, member 6b) | SID315469410 | 0.39 | enough cells in well | inactive |
| Cngb1 (cyclic nucleotide gated channel beta 1) | SID315479172 | -0.49 | enough cells in well | inactive |
| Cngb1 (cyclic nucleotide gated channel beta 1) | SID315481656 | -0.27 | enough cells in well | inactive |
| Uty | SID315469961 | 0.88 | enough cells in well | inactive |
| Entpd3 (ectonucleoside triphosphate diphosphohydrolase 3) | SID315477931 | 0.16 | enough cells in well | inactive |
| Nrn1 (neuritin 1) | SID315473525 | 1.4 | enough cells in well | inactive |
| Isy1 (spliceosome associated protein) | SID315471842 | – | fewer than 50 cells per well; well left out of calls | inactive |
| Ranbp3 (RAN binding protein 3) | SID315474336 | 2.67 | enough cells in well | inactive |
| Tm7sf2 (transmembrane 7 superfamily member 2) | SID315474682 | 0.11 | enough cells in well | inactive |
| Sec61b (SEC61 translocon subunit beta) | SID315472293 | -0.13 | enough cells in well | inactive |
| Dbh (dopamine beta hydroxylase) | SID315466268 | -1.03 | enough cells in well | inactive |
| Cdk2ap1 (cyclin dependent kinase 2 associated protein 1) | SID315466364 | 0.33 | enough cells in well | inactive |
| Casd1 (CAS1 domain containing 1) | SID315477828 | -0.12 | enough cells in well | inactive |
| Aif1 (allograft inflammatory factor 1) | SID315465362 | -0.34 | enough cells in well | inactive |
| Gpr141 (G protein-coupled receptor 141) | SID315481720 | -0.79 | enough cells in well | inactive |
| Nxph1 (neurexophilin 1) | SID315468276 | -1.26 | enough cells in well | inactive |
| 4833439L19Rik (RIKEN cDNA 4833439L19 gene) | SID315476108 | – | fewer than 50 cells per well; well left out of calls | inactive |
| Pik3ip1 (phosphoinositide-3-kinase interacting protein 1) | SID315478004 | -0.4 | enough cells in well | inactive |
| Slc27a4 | SID315470444 | 0.75 | enough cells in well | inactive |
| Papola (poly (A) polymerase alpha) | SID315468569 | -1.13 | enough cells in well | inactive |
| Pebp1 (phosphatidylethanolamine binding protein 1) | SID315470268 | 0.27 | enough cells in well | inactive |
| Or52a5b (olfactory receptor family 52 subfamily A member 5B) | SID315468332 | 1.17 | enough cells in well | inactive |
| Cyp1a1 (cytochrome P450, family 1, subfamily a, polypeptide 1) | SID315466216 | 1.07 | enough cells in well | inactive |
| Tox4 (TOX high mobility group box family member 4) | SID315480794 | -1.31 | enough cells in well | active |
| Or5p68 (olfactory receptor family 5 subfamily P member 68) | SID315480000 | – | fewer than 50 cells per well; well left out of calls | inactive |
| D930046H04Rik (RIKEN cDNA D930046H04 gene) | SID315481107 | -1.67 | enough cells in well | active |
| Drap1 (DR1 associated protein 1) | SID315472507 | -0.6 | enough cells in well | inactive |
| Hexa (hexosaminidase A) | SID315467185 | 0.77 | enough cells in well | inactive |
| Fads6 (fatty acid desaturase domain family, member 6) | SID315481460 | 0.7 | enough cells in well | inactive |
| Tob1 (transducer of ErbB-2.1) | SID315469831 | -0.79 | enough cells in well | inactive |
| Csrp3 (cysteine and glycine-rich protein 3) | SID315466179 | 0.81 | enough cells in well | inactive |
| Ccny (cyclin Y) | SID315473343 | – | fewer than 50 cells per well; well left out of calls | inactive |
| Rdh16f2 (RDH16 family member 2) | SID315478002 | -1.59 | enough cells in well | active |
| Tgm4 (transglutaminase 4 (prostate)) | SID315481634 | -0.47 | enough cells in well | inactive |
| Rere (arginine glutamic acid dipeptide (RE) repeats) | SID315473607 | -0.85 | enough cells in well | inactive |
| Tas2r117 (taste receptor, type 2, member 117) | SID315481700 | 0.69 | enough cells in well | inactive |
| Cfap68 (cilia and flagella associated protein 68) | SID315473612 | 0.66 | enough cells in well | inactive |
| Wdtc1 (WD and tetratricopeptide repeats 1) | SID315478829 | -0.98 | enough cells in well | inactive |
| Ptpn5 (protein tyrosine phosphatase, non-receptor type 5) | SID315468804 | -0.55 | enough cells in well | inactive |
